Results reported in patent US11167048B2 (priority 2018, dated 2021).
For part of these data: Some peptides are written in HELM: one residue between dots, names in brackets for other building blocks, links after the first $.

Experiments:
[1] = Fmoc solid-phase peptide synthesis; Rink; conditions: whole synthesis
[2] = general procedure: Fmoc solid-phase peptide synthesis; Rink

Substance	isolated yield [1]	conjugation yield ([2]; conjugation step, on precursor DUPA-6-Ahx-Lys-6-Ahx-RM2)	isolated yield ([2]; whole synthesis) [%]
DUPA-6-Ahx-Lys-6-Ahx-RM2	˜60%	–	–
PEPTIDE1{[DUPA].[6-Ahx].K.[6-Ahx].[dF].Q.W.A.V.G.H.[Sta].L.[am]}|PEPTIDE2{[DOTA]}$PEPTIDE1,PEPTIDE2,3:R3-1:R2$$$V2.0 [DUPA-6-Ahx-Lys(DOTA)-6-Ahx-RM2]	–	˜35%	58
